From patent publication US20210355164A1
These are yes or no findings as the source states them, for the method shown. Some binding calls cover weakened binding; strength is not graded here.

T1: ATF3 (activating transcription factor 3) protein (UniProt P18847)
T1 sequence (looked up): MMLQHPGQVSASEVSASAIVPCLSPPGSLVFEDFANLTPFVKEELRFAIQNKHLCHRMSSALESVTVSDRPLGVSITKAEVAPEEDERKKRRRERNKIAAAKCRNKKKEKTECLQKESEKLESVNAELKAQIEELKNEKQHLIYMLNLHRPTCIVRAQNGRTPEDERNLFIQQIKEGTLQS


These binders were tested against T1, ATF3 (activating transcription factor 3) protein (assay: avidin-biotin complex binding assay; plate-coated ATF3, biotin-labeled peptide 10 uM to 100 uM, absorbance at 405 nm).

Binder	binding
AESPLTNRGWNP (biotin-labeled with EZ-link sulfo-NHS-biotin; position of the label not stated) [ABP1 peptide (SEQ ID NO: 1), biotin-labeled]	binds
MLDTNIQSRPNL (biotin-labeled with EZ-link sulfo-NHS-biotin; position of the label not stated) [ABP2 peptide (SEQ ID NO: 2), biotin-labeled]	binds
TLGLRPVPVATT (biotin-labeled with EZ-link sulfo-NHS-biotin; position of the label not stated) [ABP3 peptide (SEQ ID NO: 3), biotin-labeled]	binds
VLNIPEHFTAQN (biotin-labeled with EZ-link sulfo-NHS-biotin; position of the label not stated) [ABP4 peptide (SEQ ID NO: 4), biotin-labeled]	binds
